Laboratory results reported in patent US20200048331A1 (CANIMGUIDE THERAPEUTICS, published 2020).
Results are given in words; binding and its absence hold for the method and conditions named. Some binding calls cover weakened binding; strength is not graded here.

Sequences of proteins named here, by UniProt entry; tags and fusion partners are left off. Residues count along the entry.
UniProt P01589, residues 22-213: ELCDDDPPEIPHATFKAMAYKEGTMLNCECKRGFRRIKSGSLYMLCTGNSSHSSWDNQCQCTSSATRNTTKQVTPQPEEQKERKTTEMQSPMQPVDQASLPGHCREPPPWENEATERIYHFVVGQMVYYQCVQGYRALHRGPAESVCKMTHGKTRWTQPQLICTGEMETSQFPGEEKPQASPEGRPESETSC

Biological target: fusion protein of CD25 and the Fc-part of IgG (UniProt P01589)
Experiment: ELISA, CD25-Fc on protein G coated plates, biotinylated IL-2 with or without peptide 3028

## VFDEFKPLVEEPQNLIK (Synthetic (CSBio); also called 80) [synthesized albumin peptide 3028 VFDEFKPLVEEPQNLIK]
  binding: binds
